No constants are given. Whether binding was seen depends on the method and setting. Some results given as binding are weak or reduced against the parent protein; the word gives no strength.

These results are taken from paper PMC4705812.

The experiment deals with GFP-RCC2 (UniProt Q9P258). The experiment is described as follows: pull-down; competition binding: GDP-loaded GST-Rac1 on glutathione magnetic beads, 5 µl of a constant GFP-tagged binding protein and increasing volumes of a second one, 50 mM Tris-HCl (pH 7.6), 20 mM MgCl2, 2 hr at 4 °C; both detected by quantitative anti-GFP Western blot; both purified.

As to “GFP-coronin-1C full-length (from UniProt Q9ULV4 1-474)”, the binding result was “binds”.
